Laboratory results reported in the supplement of paper PMC7877785.
± gives the uncertainty stated by the source. Many entries were measured with a wide error.

Experiment: self-splicing fitness, log relative to wild type (ln ratio); higher = more splicing; Tetrahymena group I intron in knt gene, E. coli kanamycin selection, DiMSum; sequences stand for … in CUCUCU…GGAGGGAAAAGUUAUCAGGCAUGCACCUGGUAGCUAGUCUUUAAACCAAUAGAUUGCAUCGGUUUAAAAGGCAAGACCGUCAAAUUGCGGGAAAGGGGUCAACAGCCGUUCAGUACCAAGUCUCAGGGGAAACUUUGAGAUGGCCUUGCAAAGGGUAUGGUAAUAAGCUGACGGACAUGGUCCUAACCACGCAGCCAAGUCCUAAGUCAACAGAUCUUCUGUUGAUAUGGAUGCAGUUCACAGACUAAAUGUCGGUCGGGGAAGAUGUAUUCUUCUCAUAAGAUAUAGUCGGACCUCUCCUUAAUGGGAGCUAGCGGAUGAAGUGAUGCAACACUGGAGCCGCUGGGAACUAAUUUGUAUGCGAAAGUAUAUUGAUUAGUUUUGGAGUACUCGUGGUCG
Outline: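 Library with all eight P1ex-region intron nucleotides randomised, intron inside the knt kanamycin-resistance gene on pET-22b(+), in E. coli BL21(DE3). Cells grew overnight at 37°C or 30°C on LB agar with or without 25 μg/mL kanamycin (plus 100 μg/mL carbenicillin, 50 μM IPTG, 0.2% rhamnose), in six replicate transformations. Pooled colonies were amplicon-sequenced on Illumina HiSeq 2500. DiMSum fitness is the error-weighted combination of wild-type-normalised replicate fold changes, kanamycin versus none.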

| Sequence | self-splicing fitness (ln) (30 °C) | self-splicing fitness (ln) (37 °C) |
| --- | --- | --- |
| UCGAAGCAAUAUUACGUCCC | 0.518 ± 1.1 | -1.79 ± 1.2 |
| CCCUAGCAAUAUUACGGACC | – | -1.61 ± 0.84 |
| UAGGAGCAAUAUUACGAUCC | – | -1.29 ± 1.2 |
| UCGGAGCAAUAUUACGUGAA | -3.41 ± 0.39 | -1.63 ± 0.14 |
| CCCAAGCAAUAUUACGUCUC | -2.71 ± 0.15 | -2.25 ± 0.26 |
| ACCAAGCAAUAUUACGGACG | -1.09 ± 0.069 | -0.0232 ± 0.083 |
| UAGUAGCAAUAUUACGACAC | -3.28 ± 0.61 | – |
| UUGGAGCAAUAUUACGGACC | -3.8 ± 0.52 | – |
| CGGAAGCAAUAUUACGCAUC | -3.66 ± 1 | -3.11 ± 0.61 |
| UGAGAGCAAUAUUACGGCUU | – | -4.18 ± 1 |
| AAGGAGCAAUAUUACGUAAG | -2.71 ± 0.8 | -3 ± 0.63 |
| GGCCAGCAAUAUUACGCGGU | -3.63 ± 0.46 | -2.53 ± 0.34 |
| UCGGAGCAAUAUUACGUCUC | -3.75 ± 1 | -1.13 ± 1.2 |
| AGGGAGCAAUAUUACGCAAG | -3.7 ± 0.73 | – |
| UUUUAGCAAUAUUACGUCCC | -3.18 ± 0.62 | – |
| CGAGAGCAAUAUUACGCCGC | – | -2.57 ± 0.54 |
| GGGUAGCAAUAUUACGGUAG | -5.34 ± 1 | – |
| CGGAAGCAAUAUUACGCGCU | -3.7 ± 1 | -1.58 ± 0.56 |
| AGGGAGCAAUAUUACGUCGA | -2.36 ± 1.2 | -1.84 ± 0.52 |
| AGGAAGCAAUAUUACGCUCC | – | -1.52 ± 0.54 |
| UUAGAGCAAUAUUACGCGGC | -3.03 ± 0.67 | – |
| AUGGAGCAAUAUUACGUUAC | – | -3.04 ± 0.61 |
| CGUCAGCAAUAUUACGAGUC | -4.14 ± 0.59 | – |
| GAGUAGCAAUAUUACGUCCG | -4.08 ± 0.53 | -2.9 ± 0.53 |
| AACGAGCAAUAUUACGUCCG | -4.9 ± 1 | – |

| Sequence | self-splicing fitness (ln) (30 °C) | self-splicing fitness (ln) (37 °C) |
| --- | --- | --- |
| UUGGAGCAAUAUUACGUAUC | – | -2.91 ± 0.73 |
| UGUCAGCAAUAUUACGCCUC | – | 0.000402 ± 0.87 |
| CCGCAGCAAUAUUACGAACA | – | -3.02 ± 0.6 |
| GGUAAGCAAUAUUACGGCCU | – | -2.25 ± 0.55 |
| CUCGAGCAAUAUUACGAAAA | – | -1.81 ± 0.69 |
| UGUAAGCAAUAUUACGAUGG | -2.9 ± 0.13 | -0.756 ± 0.12 |
| UAUUAGCAAUAUUACGCGAU | -4.76 ± 0.51 | – |
| CUCUAGCAAUAUUACGUGCC | -3.23 ± 0.28 | -3.62 ± 0.39 |
| GUCCAGCAAUAUUACGCCAC | – | -3.26 ± 0.74 |
| CCGCAGCAAUAUUACGAGGU | -3.73 ± 0.2 | -1.84 ± 0.19 |
| AGGAAGCAAUAUUACGCAUC | -3.94 ± 0.6 | – |
| UCUGAGCAAUAUUACGUGCC | -3.52 ± 0.74 | – |
| UCGAAGCAAUAUUACGCCUA | -3.16 ± 1 | – |
| UCGGAGCAAUAUUACGCAUA | -1.93 ± 1.2 | -2.3 ± 0.55 |
| GAAUAGCAAUAUUACGUUCC | – | -3.35 ± 0.73 |
| GUAGAGCAAUAUUACGAGCU | -2.67 ± 0.22 | -1.66 ± 0.23 |
| CGGUAGCAAUAUUACGCGCU | – | -2.98 ± 0.75 |
| GGCCAGCAAUAUUACGCUUG | -4.13 ± 0.26 | -2.58 ± 0.2 |
| UGAAAGCAAUAUUACGCCAC | -2.91 ± 1.1 | – |
| GUUGAGCAAUAUUACGGGAG | -4.25 ± 0.59 | – |
| GUUCAGCAAUAUUACGUGCU | -4.43 ± 0.72 | – |
| UGGAAGCAAUAUUACGUCUC | -3.18 ± 0.62 | -2.47 ± 0.32 |
| UCGGAGCAAUAUUACGCUAA | – | -1.85 ± 0.86 |
| UAUUAGCAAUAUUACGAUAC | -3.86 ± 0.53 | -1.13 ± 0.24 |

Fetched one by one from above:

| Sequence | self-splicing fitness (ln) (30 °C) | self-splicing fitness (ln) (37 °C) |
| --- | --- | --- |
| UAUUAGCAAUAUUACGAUAC | -3.86 ± 0.53 | -1.13 ± 0.24 |
| CGGAAGCAAUAUUACGCGCU | -3.7 ± 1 | -1.58 ± 0.56 |
| CGGAAGCAAUAUUACGCAUC | -3.66 ± 1 | -3.11 ± 0.61 |
| UUGGAGCAAUAUUACGUAUC | – | -2.91 ± 0.73 |
